Measurements reported in paper PMC7614687, “Modulation of the substrate specificity of the kinase PDK1 by distinct conformations of the full-length protein*” (Science signaling, 2023).
Results are given in words; binding and its absence hold for the method and conditions named. Some entries that bind do so weakly or less than the wild type. Tags and fused reporters may be left off the sequences shown.

T1: His-PDK1_(1-556), O15530
T1 chain: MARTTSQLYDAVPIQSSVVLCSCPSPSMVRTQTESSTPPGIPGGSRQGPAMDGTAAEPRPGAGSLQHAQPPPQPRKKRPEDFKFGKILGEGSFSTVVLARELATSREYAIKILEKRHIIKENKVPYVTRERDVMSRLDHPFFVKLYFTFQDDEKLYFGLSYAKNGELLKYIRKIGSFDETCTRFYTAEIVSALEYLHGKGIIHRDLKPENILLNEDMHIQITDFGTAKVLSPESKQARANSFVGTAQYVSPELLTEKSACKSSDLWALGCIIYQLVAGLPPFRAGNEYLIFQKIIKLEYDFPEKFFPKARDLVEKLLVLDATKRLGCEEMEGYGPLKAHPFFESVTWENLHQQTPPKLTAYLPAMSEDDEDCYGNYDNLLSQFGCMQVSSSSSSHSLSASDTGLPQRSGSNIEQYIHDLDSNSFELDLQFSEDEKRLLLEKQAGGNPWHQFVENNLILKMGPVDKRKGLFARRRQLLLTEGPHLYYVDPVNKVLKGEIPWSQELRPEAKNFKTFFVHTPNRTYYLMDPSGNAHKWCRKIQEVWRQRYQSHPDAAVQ

T2: GST-PDK1_(1-556), O15530
T2 chain: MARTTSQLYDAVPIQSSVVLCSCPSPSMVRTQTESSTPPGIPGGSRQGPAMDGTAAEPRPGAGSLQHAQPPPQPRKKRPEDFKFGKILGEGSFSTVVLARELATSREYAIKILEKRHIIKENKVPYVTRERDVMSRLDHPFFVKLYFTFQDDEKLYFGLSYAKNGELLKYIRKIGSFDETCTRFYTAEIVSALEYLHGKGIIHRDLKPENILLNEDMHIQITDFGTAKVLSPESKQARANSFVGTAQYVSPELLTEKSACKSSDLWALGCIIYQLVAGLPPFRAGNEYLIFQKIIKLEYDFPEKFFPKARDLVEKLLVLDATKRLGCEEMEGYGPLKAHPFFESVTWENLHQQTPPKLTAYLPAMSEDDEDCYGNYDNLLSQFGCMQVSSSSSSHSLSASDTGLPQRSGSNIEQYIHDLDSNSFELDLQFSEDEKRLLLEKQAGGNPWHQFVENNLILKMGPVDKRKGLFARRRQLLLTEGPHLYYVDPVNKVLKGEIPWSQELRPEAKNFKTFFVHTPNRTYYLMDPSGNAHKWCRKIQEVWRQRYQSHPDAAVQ

T3: GST-PDK1_(1-556) (UniProt O15530 1-556)
T3 construct: source: HEK293 cells, transient transfection of pEBG2T plasmid, purified, dialyzed to remove GSH
T3 sequence (looked up): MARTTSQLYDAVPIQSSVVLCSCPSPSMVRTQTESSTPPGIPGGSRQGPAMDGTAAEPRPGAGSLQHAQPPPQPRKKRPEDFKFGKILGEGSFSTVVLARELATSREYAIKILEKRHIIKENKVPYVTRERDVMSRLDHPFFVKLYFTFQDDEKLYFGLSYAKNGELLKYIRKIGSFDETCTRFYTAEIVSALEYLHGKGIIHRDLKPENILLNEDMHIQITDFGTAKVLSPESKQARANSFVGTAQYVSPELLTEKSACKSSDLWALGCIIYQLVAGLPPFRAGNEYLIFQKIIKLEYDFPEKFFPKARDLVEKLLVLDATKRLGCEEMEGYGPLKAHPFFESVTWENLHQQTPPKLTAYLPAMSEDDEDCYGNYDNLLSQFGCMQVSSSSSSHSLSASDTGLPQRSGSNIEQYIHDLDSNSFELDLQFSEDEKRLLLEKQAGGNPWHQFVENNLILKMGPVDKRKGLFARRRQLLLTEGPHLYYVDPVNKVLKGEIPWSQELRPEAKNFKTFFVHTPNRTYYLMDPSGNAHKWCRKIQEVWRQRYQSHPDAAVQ

T4: GST-PDK1_(360-556) (UniProt O15530)
T4 sequence: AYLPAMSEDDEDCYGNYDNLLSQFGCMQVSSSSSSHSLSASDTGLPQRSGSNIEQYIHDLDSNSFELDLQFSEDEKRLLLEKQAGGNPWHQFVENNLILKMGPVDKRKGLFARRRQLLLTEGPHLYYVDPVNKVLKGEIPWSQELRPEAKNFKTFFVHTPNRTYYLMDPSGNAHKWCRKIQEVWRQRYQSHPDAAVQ


Columns and labels:
[1] = biological target: T1, His-PDK1_(1-556), O15530; test: small-angle X-ray scattering (batch); 20 mM Tris-HCl pH 7,4, 250 mM NaCl, 1 mM DTT; without HYG8; both purified; conditions: remark: other sources report otherwise
[2] = biological target: T2, GST-PDK1_(1-556), O15530; test: AlphaScreen or HTRF; His-PDK1_(1-556) and GST-PDK1_(1-556); nickel chelate-coated acceptor beads and GSH-coated donor beads; pH 7.4, 150 mM NaCl, 0.1% BSA, 0.05% Tween20, 2 mM DTT; 60 min at room temperature; both purified; conditions: remark: other sources report otherwise
[3] = biological target: T3, GST-PDK1_(1-556); test: AlphaScreen or HTRF; as a1 (His-PDK1_(1-556) and GST-PDK1_(1-556)), with inositol phosphate derivatives added; both purified
[4] = biological target: T4, GST-PDK1_(360-556); test: condition: only with HYG6, HYG7, HYG8 or HYG14 (IC50 20-35 nM); AlphaScreen or HTRF; as a2 (His-PDK1_(1-556) and GST-PDK1_(360-556)), with inositol phosphate derivatives HYG6, HYG7, HYG8 or HYG14 added; both purified

Binder	binding [1]	binding [2]	binding [3]	binding [4]
His-PDK1_(1-556), O15530 1-556 (enzyme) MARTTSQLYDAVPIQSSVVLCSCPSPSMVRTQTESSTPPGIPGGSRQGPAMDGTAAEPRPGAGSLQHAQPPPQPRKKRPEDFKFGKILGEGSFSTVVLARELATSREYAIKILEKRHIIKENKVPYVTRERDVMSRLDHPFFVKLYFTFQDDEKLYFGLSYAKNGELLKYIRKIGSFDETCTRFYTAEIVSALEYLHGKGIIHRDLKPENILLNEDMHIQITDFGTAKVLSPESKQARANSFVGTAQYVSPELLTEKSACKSSDLWALGCIIYQLVAGLPPFRAGNEYLIFQKIIKLEYDFPEKFFPKARDLVEKLLVLDATKRLGCEEMEGYGPLKAHPFFESVTWENLHQQTPPKLTAYLPAMSEDDEDCYGNYDNLLSQFGCMQVSSSSSSHSLSASDTGLPQRSGSNIEQYIHDLDSNSFELDLQFSEDEKRLLLEKQAGGNPWHQFVENNLILKMGPVDKRKGLFARRRQLLLTEGPHLYYVDPVNKVLKGEIPWSQELRPEAKNFKTFFVHTPNRTYYLMDPSGNAHKWCRKIQEVWRQRYQSHPDAAVQ	binds	binds	–	–
His-PDK1_(1-556) (enzyme, UniProt O15530 1-556) MARTTSQLYDAVPIQSSVVLCSCPSPSMVRTQTESSTPPGIPGGSRQGPAMDGTAAEPRPGAGSLQHAQPPPQPRKKRPEDFKFGKILGEGSFSTVVLARELATSREYAIKILEKRHIIKENKVPYVTRERDVMSRLDHPFFVKLYFTFQDDEKLYFGLSYAKNGELLKYIRKIGSFDETCTRFYTAEIVSALEYLHGKGIIHRDLKPENILLNEDMHIQITDFGTAKVLSPESKQARANSFVGTAQYVSPELLTEKSACKSSDLWALGCIIYQLVAGLPPFRAGNEYLIFQKIIKLEYDFPEKFFPKARDLVEKLLVLDATKRLGCEEMEGYGPLKAHPFFESVTWENLHQQTPPKLTAYLPAMSEDDEDCYGNYDNLLSQFGCMQVSSSSSSHSLSASDTGLPQRSGSNIEQYIHDLDSNSFELDLQFSEDEKRLLLEKQAGGNPWHQFVENNLILKMGPVDKRKGLFARRRQLLLTEGPHLYYVDPVNKVLKGEIPWSQELRPEAKNFKTFFVHTPNRTYYLMDPSGNAHKWCRKIQEVWRQRYQSHPDAAVQ	–	–	no binding (condition: with HYG6, HYG7, HYG8 or HYG14)	no binding
